The source of these data is patent US11396510B2, “GABAA receptor ligand” (Saniona A/S, priority 2018, dated 2022).

The nature of series [1]: in vitro. The following applies: mouse, plasma.
For series [2] the following is noted: 30 mg/kg oral, male Sprague Dawley rats.
A short description of series [3]: in vivo. The following applies: rat, plasma.
Series [4] concerns rat hepatocytes. The following applies: rat cryopreserved hepatocytes, 1 μM, 0-120 minutes at 37° C.
Series [5] in a line: in vitro. The following applies: male, Wistar, rat, brain homogenate (10% w/v), pH 7.4.
For series [6], the system named is human hepatocytes. The following applies: human cryopreserved hepatocytes, 1 μM, 0-120 minutes at 37° C.
Series [7] can be described thus: in vitro. The following applies: rat, plasma.

What is called fraction unbound is free concentration divided by total concentration. A low value points to little free substance. One may read the AUC(0-t) as the area under the concentration-time curve up to a stated or last time point. High values mean more exposure, low ones less exposure. The term Cmax denotes the highest concentration seen after dosing. By Tmax is commonly meant the time at which the peak concentration occurs. One may read the Vd as a proportionality between amount in the body and measured concentration, not a real space. Low values mean little distribution into tissue, high ones wide distribution into tissue. Turning to `COc1ncc(-c2cccc(-n3cnc4cc(C(C)(C)O)cnc43)c2)c(OC)n1` [Compound 1, 2-(3-(3-(2,4-dimethoxypyrimidin-5-yl)phenyl)-3H-imidazo[4,5-b]pyridin-6-yl)propan-2-ol], the fraction unbound at 4 h in series [1] is 0.16; in series [7] it was 0.19. In series [2], this compound yielded a free brain concentration of 494. Also, the AUC(0-t) amounted to 1130 ng·h/mL in series [3] (1 mg/kg); 8000 ng·h/mL in series [3] (3 mg/kg); 34500 ng·h/mL in series [3] (10 mg/kg); 98500 ng·h/mL in series [3] (30 mg/kg); 985 ng·h/mL in series [3] (iv, 0.5 mg/kg). In addition, the Cmax in series [3] (1 mg/kg) was found to be 163 ng/mL; in series [3] (3 mg/kg), 552 ng/mL; in series [3] (10 mg/kg) it was 2270 ng/mL; in series [3] (30 mg/kg) it was 6590 ng/mL. Moreover, the Tmax in series [3] (1 mg/kg) stood at 4 h; in series [3] (3 mg/kg), 6 h; in series [3] (10 mg/kg) it was 8 h; in series [3] (30 mg/kg) it was 4 h. This compound displayed a C0 in series [3] (iv, 0.5 mg/kg) of 863 ng/mL. The same compound displayed a Vd in series [3] (iv, 0.5 mg/kg) of 2.4 L/kg. Besides, the CIint in vivo was 2.11 μl/min/million cell in series [4] and 1.87 μl/min/million cell in series [6]. In series [5], this compound displayed a fraction unbound at 4 h, 10 μM of 0.07.
